Earlier results in EP0123528B1, “Pharmaceutical composition for the treatment of hair loss” (Mortimer, Christopher Harry, Dr., priority 1983, dated 1984).
For at least one compound, name, drawing or mass did not settle the structure.

Test system: alopecia areata
Settings: 1% concentration, in propylene glycol, industrial methylated spirit and water or in Ungentum Merck; cited from earlier work

**Q.** Which “hair growth in patients with alopecia areata” value does the source give for `Nc1cc(N2CCCCC2)nc(N)[n+]1[O-]` [minoxidil] here?
**A.** hair growth can be achieved
